Test results as given in US4880007A, “Contrast agent for NMR scanning” (Amersham International PLC, priority 1985, dated 1989).

Assays:
Assay type in all cases: physicochemical
[1] = T1 relaxation of phosphonate complexes at 200 MHz 25° C.; settings: for T1: 25° C., 1 millimolar, water 3.3s
[2] = Relaxation of hydroxy apatite-complex adducts at 10 MHz and 37° C.; settings: for T1: HAP only 2.50s
[3] = Relaxation (T1, T2) of complexes at 10 MHz 37° C., 10 mM; settings: for T1/T2: 10 millimolar solutions
[4] = T1 relaxation study of Gd complexes in aqueous solution at 200 MHz and 300° K.; settings: 200 MHz
[5] = HAP adduct 10 mg/ml, 10 MHz 37° C., HAP only 0.97s
[6] = HAP adduct 10 mg/ml, 10 MHz 37° C.
[7] = 10 MHz 37° C., 10 millimolar solutions (comparison MXDTMP/EDTMP)

SMILES	T1 ([1]; chromium/gadolinium complexes)	T2 [2, 5]	T1 [2, 6]	T1 ([1]; manganese complexes)	other results
O=P(O)(O)CN(CCO)CP(=O)(O)O.O=P(O)(O)CN(CCO)CP(=O)(O)O.[Cr] [Cr(AEDMP)2]	1.13 s	0.53 s	1.03 s		
O=C(O)CCCCCN(CP(=O)(O)O)CP(=O)(O)O.O=C(O)CCCCCN(CP(=O)(O)O)CP(=O)(O)O.[Cr] [Cr(AHADMP)2]	1.04 s	0.55 s	1.17 s		
O=C(O)CCCN(CP(=O)(O)O)CP(=O)(O)O.O=C(O)CCCN(CP(=O)(O)O)CP(=O)(O)O.[Cr] [Cr(GABADMP)2]	0.91 s		1.39 s		T2 [2]: 0.67 s
O=C(O)CN(CP(=O)(O)O)CP(=O)(O)O.O=C(O)CN(CP(=O)(O)O)CP(=O)(O)O.[Cr] [Cr(GDMP)2]	0.89 s	0.54 s	0.97 s		
O=P(O)(O)CN(Cc1cccc(CN(CP(=O)(O)O)CP(=O)(O)O)c1)CP(=O)(O)O.[Cr] [CrMXDTMP]	0.55 s	0.56 s	0.98 s		T1 ([3]; 10 MHz, 37° C., 10 mM): 160 ms; T2 ([3]; 10 MHz, 37° C., 10 mM): 130 ms
O=P(O)(O)CN(CCN(CP(=O)(O)O)CP(=O)(O)O)CCN(CP(=O)(O)O)CP(=O)(O)O.[Gd] [Gd.DTPMP]					T1 ([4]; 0.5 mM): 144 ms; T1 ([4]; 1 mM): 45 ms; T1 ([4]; 2.5 mM): 38 ms; T1 ([4]; 5 mM): 23 ms
O=P(O)(O)CN(CCN(CP(=O)(O)O)CP(=O)(O)O)CP(=O)(O)O.[Gd] [Gd.EDTMP]					T1 ([4]; 0.5 mM): 168 ms; T1 ([4]; 1 mM): 87 ms; T1 ([4]; 2.5 mM): 38 ms; T1 ([4]; 5 mM): 18 ms
O=P(O)(O)CN(CCCCCCN(CP(=O)(O)O)CP(=O)(O)O)CP(=O)(O)O.[Gd] [Gd.HDTMP]					T1 ([4]; 0.5 mM): 284 ms; T1 ([4]; 1 mM): 142 ms; T1 ([4]; 2.5 mM): 71 ms; T1 ([4]; 5 mM): 30 ms
O=P(O)(O)CN(Cc1cccc(CN(CP(=O)(O)O)CP(=O)(O)O)c1)CP(=O)(O)O.[Gd] [GdMXDTMP]	0.064 s	0.06 s	0.06 s		T1 ([3]; 10 MHz, 37° C., 10 mM): 10 ms; T2 ([3]; 10 MHz, 37° C., 10 mM): 7 ms
O=P(O)(O)CN(Cc1cccc(CN(CP(=O)(O)O)CP(=O)(O)O)c1)CP(=O)(O)O [MXDTMP, Meta-xylene diamine tetramethylene phosphonate]					NMR line shape / effect on T2 relaxation ([1]; complexed to metal): sharp which implies less effect on T2 relaxation
O=P(O)(O)CN(CCO)CP(=O)(O)O.O=P(O)(O)CN(CCO)CP(=O)(O)O.[Mn] [Mn(AEDMP)2]		0.12 s	0.14 s	0.007 s	
O=C(O)CCCCCN(CP(=O)(O)O)CP(=O)(O)O.O=C(O)CCCCCN(CP(=O)(O)O)CP(=O)(O)O.[Mn] [Mn(AHADMP)2]		0.18 s	0.26 s	0.125 s	
O=C(O)CCCN(CP(=O)(O)O)CP(=O)(O)O.O=C(O)CCCN(CP(=O)(O)O)CP(=O)(O)O.[Mn] [Mn(GABADMP)2]			0.24 s	0.072 s	T2 [2]: 0.16 s
O=C(O)CN(CP(=O)(O)O)CP(=O)(O)O.O=C(O)CN(CP(=O)(O)O)CP(=O)(O)O.[Mn] [Mn(GDMP)2]		0.24 s	0.24 s	0.160 s	
O=P(O)(O)CN(CCN(CP(=O)(O)O)CP(=O)(O)O)CP(=O)(O)O.[Mn] [MnEDTMP]			0.23 s		T1/T2 ([3]; 10 MHz 37° C.): 1.1; T1 [3, 7]: 27 ms; T2 [3, 7]: 24 ms; T2 [2]: 0.13 s
O=P(O)(O)CN(Cc1cccc(CN(CP(=O)(O)O)CP(=O)(O)O)c1)CP(=O)(O)O.[Mn] [MnMXDTMP, manganese metaxylene diamine tetramethylene phosphonate]		0.11 s	0.13 s	0.097 s	T1/T2 ([3]; 10 MHz 37° C.): 1.1; T1 [3, 7]: 10 ms; T2 [3, 7]: 9 ms; T1 ([3]; 10 MHz, 37° C., 10 mM): 10 ms; T2 ([3]; 10 MHz, 37° C., 10 mM): 9 ms
